Measured values: US8168669B2, “Therapeutic agent for inflammatory bowel disease and TNF-α production inhibitor” (Ajinomoto Co., Inc., priority 2005, dated 2012)
At least one read-out could not be matched to a standard name with certainty.

Test system: colitis in Scid mice injected with cells of IL-10 deficient Balb/c mice
Test: Therapeutic effect on inflammatory bowel disease: colon weight in cell-transfer colitis mice fed experimental diet
Assay type: in vivo, mouse
Settings: 5% in standard chow, three weeks after cell transfer
Method: Balb/c background IL-10 deficient mice were established from C57BL/6 background IL-10 deficient mice by back-crossing for seventh generations. […] Spleen, mesenteric lymph nodes and sacral lymph nodes were collected from the IL-10 gene-deficient Balb/c mice (male) which had developed the colitis detected by observing the diarrhea symptoms. After preparing single cell suspensions, the cells at about 1×10^7 were injected intraperitoneally to Scid mice which were immunodeficiency mice (hereinafter the Scid mouse injected IP was referred to as an “experiment mouse”). Subsequently, a chow was changed to an experimental diet. At a time point three weeks after cell transfer, the mice were killed, the colon was collected, the intestinal contents were washed out, and its weight was measured. A percentage of inhibiting a weight gain of the colon was calculated by the following formula. Percentage of inhibiting a weight gain of colon=[1−(Colon weight in target group−Colon weight in cell transfer group)/(Colon weight in standard chow group−Colon weight in cell transfer group)]×100(%)
An amino acid mixture A is composed of the following amino acids (% by weight is represented in terms of free amino acid).

N[C@@H](CS)C(=O)O [Example 4, cysteine]
Colon weight Mean: 414.4
Colon weight Mean (listed as Example 8): 375.4
Rate of inhibiting weight gain of colon (%) (listed as Example 8): 54.4%
